Test results reported in patent publication US5789542A, “Amphipathic peptides” (Board of Supervisors of Louisiana State University and …, priority 1997, dated 1998).
At least one peptide structure holds a part that was inferred or is arguable (an end, a ring closure or a residue). Where a SMILES comes first, the peptide text is derived from it.

Columns and labels:
Type in all cases: cell-based
Conditions in all cases: 5×10^4 cells, incubated overnight
[1] = tested on: Staphylococcus aureus ATCC 25723; assay: Minimum inhibitory concentration by broth microdilution, S. aureus
Protocol: (§1) Minimum inhibitory concentrations of several of the peptides were measured against E. coli ATCC 25922, Pseudomonas aeruginosa ATCC 27853, and Staphylococcus aureus ATCC 25723. Minimum inhibitory concentrations were obtained by the broth microdilution method. Peptide solutions were prepared over a range of concentrations from 2 μg/mL to 256 μg/mL. 5×10^4 cells were added to the peptide solutions in sterile wells and incubated overnight. Wells in which the organisms grew became turbid. The minimum inhibitory concentration was the lowest concentration that inhibited growth of the organism.
(§2) P. aeruginosa and E. coli are Gram-negative bacteria, while S. aureus is a Gram-positive bacterium. 3T3 cells are healthy Swiss mouse fibroblast cells, and 3T12 cells are transformed, immortalized mouse fibroblast cells. Thus the novel peptides (at the proper concentrations) have activity against both Gram-negative and Gram-positive bacteria, while not showing activity against mammalian cells. This combination of properties is itself rather unusual in a lytic peptide.

[2] = tested on: Pseudomonas aeruginosa ATCC 27853; assay: Minimum inhibitory concentration by broth microdilution, P. aeruginosa
Protocol: as §1, §2

E. coli ATCC 25922 = assay: Minimum inhibitory concentration by broth microdilution, E. coli
Protocol: as §1, §2

In the case of `COC(=O)[C@H](C)NC(=O)[C@H](CC(C)C)NC(=O)[C@H](CCCCN)NC(=O)[C@H](CCCCN)NC(=O)[C@H](C)NC(=O)[C@H](CC(C)C)NC(=O)[C@H](CCCCN)NC(=O)[C@H](C)NC(=O)[C@H](CC(C)C)NC(=O)[C@H](CCCCN)NC(=O)[C@H](CCCCN)NC(=O)[C@H](C)NC(=O)[C@H](CC(C)C)NC(=O)[C@@H](N)CCCCN` [(KLAKKLA)2] (H-KLAKKLAKLAKKLA-OMe), the “Minimum Inhibitory Concentration, S. aureus” value [1] is reported as 6.0 µM, the “Minimum Inhibitory Concentration, P. aeruginosa” value [2] is reported as 3.0 µM and the “Minimum Inhibitory Concentration, E. coli” value (E. coli ATCC 25922) is reported as 6.0 µM.
